Results are given in words; binding and its absence hold for the method and conditions named. Binding seen in cells or lysates may run through a third protein. These calls come from enrichment with a bait or labelling near it, and not all partners need be listed. Where a sequence is shown, tags or fusion partners need not be part of it.
Target: Cran1 expressed in situ with a Flag-tag at the C-terminus (Saccharolobus islandicus REY15A) (UniProt F0NG35)
Assay: affinity purification with mass spectrometry

Chains of the proteins cited; added tags and fusions are not shown. Lines headed by an entry give the natural chain unless they say otherwise; changes in a name come on top.
UniProt F0NG35: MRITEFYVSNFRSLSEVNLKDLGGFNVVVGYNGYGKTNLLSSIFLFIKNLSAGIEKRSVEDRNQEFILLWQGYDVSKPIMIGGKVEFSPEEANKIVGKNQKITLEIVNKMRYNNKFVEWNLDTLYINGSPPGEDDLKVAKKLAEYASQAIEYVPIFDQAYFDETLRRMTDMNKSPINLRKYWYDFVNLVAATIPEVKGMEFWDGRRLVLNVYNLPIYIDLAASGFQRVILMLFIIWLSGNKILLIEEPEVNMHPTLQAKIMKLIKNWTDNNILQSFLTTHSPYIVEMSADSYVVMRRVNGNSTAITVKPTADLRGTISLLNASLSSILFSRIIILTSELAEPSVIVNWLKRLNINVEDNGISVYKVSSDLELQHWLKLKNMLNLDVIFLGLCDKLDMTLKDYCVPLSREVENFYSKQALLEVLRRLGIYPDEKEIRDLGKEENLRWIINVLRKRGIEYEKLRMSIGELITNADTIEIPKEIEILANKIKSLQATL

Binder	binding
Cren7 (protein, UniProt C3MPN0 1-60) MSSGKKAVKVKTPAGKEAELVPEKVWALAPKGRKGVKIGLFKDPETGKYFRHKLPDDYPI	binds
histone deacetylase superfamily protein (SiRe_1988) (protein, UniProt F0NBZ0 1-327) MITIVYDDIYRYHAPKKYHVENPSRIDKALSAINQLEVKFEKPVRVDDPQIVHSEDYIKLVEKHSKLEENLDADTYTNKYTYESALYAMGGALKAFETNGFALVRPPGHHVGVNGRALGAPTLGFCIFNSVAYPIKRYKLKRVAIIDFDVHYGNGTQEIFYDDPDILHIDVHQDPRTIYPGTGFVDMIGGKDAEGTKINLLIPPLGSDDLYEELIPIIQAILDDFKPVVVAYSAGFDSYVGDGLASVNATEYTFYNFGMISNKFTRKYAVLEGGYNKGLVKGLKAFLEGFANLKIEYKKYKSSDTVKSRFMNYLSEEKNILRNYWSI	binds
